Measurements reported in paper PMC7412674.
Results are given in words; binding and its absence hold for the method and conditions named. In cells and extracts the contact can be indirect. Some results given as binding are weak or reduced against the parent protein; the word gives no strength. Sequences can lack the tags named with a protein.

Assays:
[1] = biological target: T1, EYFP-IL20RB-HA (interleukin 20 receptor subunit b, from pEYFPC1-IL20RB-HA) (human) (UniProt Q6UXL0); test: FRET or BRET; COS-7 cells on coverslips co-transfected with pCFPN1-ROP18-3×FLAG and pEYFPC1-IL20RB-HA for 48 h; confocal microscope, sensitized emission; FRET efficiency and intermolecular distance against CFP+YFP (negative) and a CFP-YFP fusion (positive)
T1 sequence: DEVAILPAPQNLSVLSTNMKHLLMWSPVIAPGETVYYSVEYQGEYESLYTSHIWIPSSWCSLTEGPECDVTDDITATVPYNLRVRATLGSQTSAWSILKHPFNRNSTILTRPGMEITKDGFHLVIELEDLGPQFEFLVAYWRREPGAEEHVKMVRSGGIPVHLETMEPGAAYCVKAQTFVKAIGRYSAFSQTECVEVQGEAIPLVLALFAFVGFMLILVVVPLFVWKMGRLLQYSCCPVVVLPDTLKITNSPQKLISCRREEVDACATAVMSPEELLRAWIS

[2] = biological target: T1, EYFP-IL20RB-HA (interleukin 20 receptor subunit b, from pEYFPC1-IL20RB-HA) (human); test: co-IP; lysates of transfected COS-7 cells, 4 μg anti-HA antibody 1 h at 4 °C, Protein A-Agarose 12 h at 4 °C, washed 4 times with PBS; western blot for FLAG and HA
[3] = biological target: T2, EYFP-IL20RB-Extr-HA (extracellular domain of IL20RB, from pEYFPC1-IL20RB-Extr-HA) (human) (UniProt Q6UXL0); test: as above
T2 sequence: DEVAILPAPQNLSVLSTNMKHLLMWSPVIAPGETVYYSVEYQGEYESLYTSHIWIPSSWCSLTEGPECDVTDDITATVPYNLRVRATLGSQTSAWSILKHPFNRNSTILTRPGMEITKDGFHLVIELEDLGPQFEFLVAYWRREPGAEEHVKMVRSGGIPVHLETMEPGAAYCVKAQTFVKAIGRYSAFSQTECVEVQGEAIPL

Measured: binding

B1: CFP-ROP18-3×FLAG (Toxoplasma gondii rhoptry protein 18, type I, from pCFPN1-ROP18-3×FLAG) (enzyme, UniProt Q2PAY2 1-554)
chain: MFSVQRPPLTRTVVRMGLATLLPKTACLAGLNVALVFLLFQVQDGTGITLGPSKLDSKPTSLDSQQHVADKRWLATVGHYKHLAGATESTRDVSLLEERAQHRVNAQETNQRRTIFQRLLNLLRRRERDGEVSGSAADSSSRPRLSVRQRLAQLWRRAKSLFKRGIRRYFPQGRNRQRSLRAQRRRSELVFEKADSGCVIGKRILAHMQEQIGQPQALENSERLDRILTVAAWPPDVPKRFVSVTTGETRTLVRGAPLGSGGFATVYEATDVETNEELAVKVFMSEKEPTDETMLDLQRESSCYRNFSLAKTAKDAQESCRFMVPSDVVMLEGQPASTEVVIGLTTRWVPNYFLLMMRAEADMSKVISWVFGDASVNKSEFGLVVRMYLSSQAIKLVANVQAQGIVHTDIKPANFLLLKDGRLFLGDFGTYRINNSVGRAIGTPGYEPPERPFQATGITYTFPTDAWQLGITLYCIWCKERPTPADGIWDYLHFADCPSTPELVQDLIRSLLNRDPQKRMLPLQALETAAFKEMDSVVKGAAQNFEQQEHLHTE
binds: all assays above
